Experimental data: PubChem BioAssay AID2685 (National Center for Advancing Translational Sciences (NCATS), 2010)
The list shows a part of the results. Shown are side measurements of this screen, not its main read-out; they come without a call. Compounds called inactive in the main read-out are mostly missing here. The note in brackets gives the kind of curve behind each potency; many fits are weak.

Test: qHTS Assay for Lipid Storage Modulators in Drosophila S3 Cells;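 as to cell number change: cells counted by Cell Tracker Red CMTPX staining in the red channel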
Conditions: BODIPY lipid droplet fluorescence, 18-24 h; for cell number change: measured here: cell count max response, cells fed with added oleic acid
In short: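 Laser-scanning cytometry quantifies lipid droplet accumulation (500–530 nm total intensity; droplet/cell object ratio) in oleic acid-fed (400 uM added) Drosophila S3 cells treated with a concentration series. 20 uM Triacsin C defined 100% inhibition.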

[1] = measured here: lipid fluorescence (Fed channel) AC50, cells fed with added oleic acid
[2] = measured here: cell number channel AC50, cells fed with added oleic acid

CCN(CC)S(=O)(=O)c1cc(C(=O)Nc2ccccn2)ccc1C
cell number change: 6.75%

CCOCCCNC(=O)N[C@@H](Cc1ccccc1)C(=O)OC
cell number change: -9.11%
AC50 [1]: 2.31 µM [falling, full curve, poor fit]

Cc1c(NC(=O)c2cnn3c2NC(c2ccccc2)CC3C(F)(F)F)c(=O)n(-c2ccccc2)n1C (configuration not stated)
cell number change: -9.61%
AC50 [1]: 4.11 µM [falling, single point]

O=C(CSc1ncccn1)Nn1cnnc1
AC50 [1]: 23.1 µM [falling, partial curve]

Cc1cn([C@@H](CCCCNC(=O)OC(C)(C)C)C(=O)NCCCCCCCCCCC(=O)N2CCN(C(=O)OC(C)(C)C)CC2)nn1
cell number change: -45.4%
AC50 [2]: 9.2 µM [falling, partial curve]
AC50 [1]: 2.06 µM [falling, partial curve]

CCc1nnc(NC(=O)C2CC(=O)N(Cc3ccccc3)C2)s1 (configuration not stated)
cell number change: 3.5%
AC50 [2]: 0.58 µM [rising, single point]

COc1cccc(C2C(C(=O)c3ccco3)=C(O)C(=O)N2CCN(C)C)c1OC (configuration not stated)
cell number change: 56.3%
AC50 [2]: 11.6 µM [rising, partial curve]

COc1cc(/C=N/N=C(/N)c2nonc2N)cc(Br)c1OCc1ccccc1C
cell number change: -65.2%
AC50 [2]: 29.1 µM [falling, single point]
AC50 [1]: 2.06 µM [rising, partial curve]

COc1ccc(-c2c[n+]3c(n2-c2ccccc2)CCCCC3)cc1
cell number change: -40.1%
AC50 [2]: 16.4 µM [falling, single point]
AC50 [1]: 18.4 µM [falling, single point]

Cn1c(-c2ccsc2)c(-c2cccs2)c2cc(Br)ccc21
cell number change: 20.1%
AC50 [1]: 1.16 µM [falling, partial curve]

CCOc1ccc(NC(=O)CN(C)C(=O)C2CCCO2)cc1OCC (configuration not stated)
cell number change: -58.6%
AC50 [2]: 25.9 µM [falling, single point]

CCOc1cc(-c2noc(-c3ccncc3)n2)cc(Br)c1OC
cell number change: -5.81%
AC50 [2]: 0.184 µM [rising, full curve, poor fit]
AC50 [1]: 13 µM [rising, single point]

O=C(COc1ccc(Cl)cc1)NCCSCc1cccc(Cl)c1
cell number change: 0.454%
AC50 [1]: 4.61 µM [rising, partial curve, poor fit]

CCC(C)Nc1nc2c(c(=O)[nH]c(=O)n2C)n1CCOc1ccccc1 (configuration not stated)
cell number change: 1.8%
AC50 [1]: 4.61 µM [falling, full curve]

CCOC(=O)CCc1c(C)nc2cc(-c3ccc(Cl)cc3)[nH]n2c1=O
cell number change: 13.2%
AC50 [1]: 0.00461 µM [rising, full curve, poor fit]

CN(C)S(=O)(=O)N1CCN(S(=O)(=O)c2ccc3ccccc3c2)CC1
cell number change: 1.04%
AC50 [1]: 0.517 µM [rising, full curve, poor fit]

Cc1ccc(NC(=O)CN2C(=O)NC3(CCc4ccccc43)C2=O)cc1Cl (configuration not stated)
AC50 [1]: 1.3 µM [falling, full curve, poor fit]

Cc1nn(C(C)(C)C)c(NC(=O)c2ccc(Cl)cc2)c1Br
cell number change: 23.4%

O=C(Nc1ccc(C(O)(C(F)(F)F)C(F)(F)F)cc1)c1ccc(Cl)c([N+](=O)[O-])c1
cell number change: -31.8%
AC50 [2]: 29.1 µM [falling, single point]
AC50 [1]: 29.1 µM [falling, single point]

O=C(Cn1nnc(-c2ccc([N+](=O)[O-])cc2)n1)NNC(=O)c1ccccc1
cell number change: 22.6%
AC50 [1]: 0.58 µM [falling, single point]

O=C(OCC#CCSc1nnc(-c2ccc(Br)cc2)o1)c1cccs1
cell number change: 39.7%
AC50 [2]: 29.1 µM [rising, single point]
AC50 [1]: 0.92 µM [rising, full curve, poor fit]

Cc1nnc(SCc2nc3ccccc3s2)n1-c1ccccc1
cell number change: 22.3%
AC50 [1]: 2.59 µM [rising, full curve]

Cc1c(Cl)c([N+](=O)[O-])nn1Cc1ccc(C(=O)NN)o1
cell number change: 25.5%
AC50 [2]: 0.00651 µM [rising, full curve, poor fit]
AC50 [1]: 5.8 µM [rising, partial curve]

O=C(Nc1ccc(N2CCCC2)cc1)c1ccc2ccccc2c1
cell number change: 20.4%
AC50 [1]: 2.31 µM [rising, full curve]

Cc1ccccc1NC(=S)NCCc1ccccc1
cell number change: 34.7%
AC50 [2]: 3.26 µM [rising, single point]

COC(=O)c1ccc(C)c(NC(=O)COC(=O)C2CC3CCCC(C2)C3=O)c1 (configuration not stated)
cell number change: 131%
AC50 [2]: 18.4 µM [rising, partial curve]

O=C(CN1C(=O)c2ccccc2C1=O)Nc1cc([N+](=O)[O-])ccc1O
cell number change: -10.6%

COc1ccc(CNC(=O)C2CCN(C(=O)Cc3ccccc3)CC2)cc1
cell number change: -32.5%
AC50 [2]: 0.13 µM [falling, full curve, poor fit]

O=C(CNS(=O)(=O)c1cccc(C(F)(F)F)c1)Nc1ccccc1F
cell number change: -66.4%
AC50 [2]: 29.1 µM [falling, single point]

CCN1CCN(CNC(=O)c2cnccn2)CC1
cell number change: 6.02%

CCc1ccc(NC(=O)C2=CC(c3cccs3)=NS(=O)(=O)N2C)cc1
AC50 [1]: 25.9 µM [falling, single point]

CC(NC(=O)Nc1ccc([N+](=O)[O-])cc1)C(c1ccccc1)N1CCOCC1 (configuration not stated)
cell number change: -5.62%

Cc1c(-n2c(SCC(C)C)nc3ccccc3c2=O)c(=O)n(-c2ccccc2)n1C
cell number change: -21.9%
AC50 [1]: 5.17 µM [falling, partial curve, poor fit]

O=C(O)c1cc(N/C(=N\S(=O)(=O)c2ccc(F)cc2)c2ccccc2)ccc1O
cell number change: -3.21%

COc1ccc(CN(C)CC(O)COc2ccc(-c3ccccc3)cc2)cc1OC (configuration not stated)
cell number change: 39.7%
AC50 [2]: 25.9 µM [rising, partial curve]

Cc1ccc(-c2[nH]nc3c2C(C)C(C#N)=C(N)O3)cc1 (configuration not stated)
cell number change: 25.8%
AC50 [1]: 14.6 µM [rising, partial curve]

O=C(N/N=C/c1c(Nc2cccc(C(F)(F)F)c2)nc2ccccn2c1=O)c1ccccc1
cell number change: 3.74%
AC50 [1]: 0.0731 µM [rising, full curve, poor fit]

O=C(NNC(=O)c1ccccc1-n1cccc1)c1ccc(Cl)nc1
cell number change: 15.4%
AC50 [2]: 0.517 µM [falling, full curve]
AC50 [1]: 0.82 µM [falling, full curve]

CC(=O)c1cccc(NC(=O)c2onc(C)c2Cl)c1
cell number change: -1.84%
AC50 [1]: 29.1 µM [rising, single point]

CCOC(=O)N1CCC(N2CCN(S(=O)(=O)c3ccc4ccccc4c3)CC2)CC1
cell number change: 84.9%
AC50 [2]: 20.6 µM [rising, partial curve]

CC(C)Nc1nc(NC(C)C)nc(N(C)C#N)n1
cell number change: 11.9%
AC50 [2]: 6.51 µM [rising, single point]
AC50 [1]: 29.1 µM [rising, single point]

CC(C)CNC(=S)N(CCCO)Cc1cc2cc3c(cc2[nH]c1=O)OCCO3
cell number change: -3.65%

O=C(O)C1Cc2ccccc2CN1C(=O)c1ccccc1 (configuration not stated)
cell number change: -32.1%
AC50 [2]: 5.8 µM [falling, full curve, poor fit]
AC50 [1]: 3.26 µM [falling, single point]

O=C(Cc1ccc(Br)cc1)N1CCOCC1
cell number change: 36.5%
AC50 [2]: 23.1 µM [rising, single point]
AC50 [1]: 29.1 µM [rising, single point]

COc1cccc(CN2CC(C(=O)NCc3cccc(N4CCCC4)c3)CCC2=O)c1 (configuration not stated)
cell number change: -2.99%

COc1ccc(S(=O)(=O)NCCC(=O)OCC(=O)c2ccc[nH]2)cc1[N+](=O)[O-]
cell number change: -5.46%
AC50 [2]: 0.082 µM [falling, full curve, poor fit]
AC50 [1]: 29.1 µM [falling, single point]

Cc1ccc(OC(=O)CCC(=O)NC(C)c2ccccc2)cc1 (configuration not stated)
cell number change: 6.18%
AC50 [1]: 29.1 µM [rising, single point]

CCCN1CCN(C(=O)CCCNC(=O)c2ccc(Cl)cc2)CC1
AC50 [1]: 29.1 µM [falling, single point]

CCN(CC)C(=S)Nc1ccc(Cl)c(Cl)c1
cell number change: -33.3%
AC50 [2]: 6.51 µM [falling, single point]

C#Cc1ccc(CN2CCC(Oc3cc(C(=O)NC4CC4)ccc3OC)CC2)cc1
cell number change: 16.3%
AC50 [1]: 29.1 µM [rising, single point]

Cc1[nH]nc2c1C(c1ccsc1)C1=C(CC(C)(C)CC1=O)N2 (configuration not stated)
cell number change: -7.92%
AC50 [2]: 0.00461 µM [falling, full curve, poor fit]
AC50 [1]: 0.58 µM [falling, partial curve, poor fit]

COc1ccccc1NS(=O)(=O)c1ccc(C)c(C(=O)NC2CCN(Cc3ccccc3)CC2)c1
cell number change: 47.1%
AC50 [2]: 2.31 µM [rising, full curve, poor fit]

CCOc1ccc(C(=O)NCCNC(=O)c2ccc(OCC)cc2)cc1
cell number change: 0.676%

COc1ccc(NC(=O)C2=CC(c3ccc(OC)cc3)=NS(=O)(=O)N2C)cc1
cell number change: -3.75%
AC50 [1]: 16.4 µM [falling, single point]

Cc1cccc2nc(=S)n(C(=O)c3ccco3)n12
cell number change: 30.6%
AC50 [2]: 6.51 µM [rising, partial curve]

Cn1c(CNC(=O)c2ccc(Cl)c(Cl)c2)nnc1SCC(=O)Nc1sc2c(c1C#N)CCCC2
cell number change: 62.1%
AC50 [2]: 2.59 µM [rising, full curve]
AC50 [1]: 20.6 µM [rising, partial curve]

CCCc1nc(NCCCOCC)c2nnn(Cc3ccccc3)c2n1
cell number change: 16.1%
AC50 [1]: 2.91 µM [rising, single point]

C#CCOCCOCCOCCNc1nc(N2CCN(C(=O)[C@H](C(C)C)n3cc(CCO)nn3)CC2)nc(N2CCN(C(=O)[C@H](C(C)C)n3cc(CCO)nn3)CC2)n1
cell number change: 5.38%
AC50 [1]: 0.651 µM [falling, full curve, poor fit]
